Assay results published in publication PMC12435490.
No constants are given. Whether binding was seen depends on the method and setting. In cells and extracts the contact can be indirect. Some entries that bind do so weakly or less than the wild type. For part of these data: Sequences can lack the tags named with a protein. Values belong to the substance of their own block, whether it stands above or below them.

The chains behind the UniProt entries cited, without tags or fusion partners.
UniProt P67775: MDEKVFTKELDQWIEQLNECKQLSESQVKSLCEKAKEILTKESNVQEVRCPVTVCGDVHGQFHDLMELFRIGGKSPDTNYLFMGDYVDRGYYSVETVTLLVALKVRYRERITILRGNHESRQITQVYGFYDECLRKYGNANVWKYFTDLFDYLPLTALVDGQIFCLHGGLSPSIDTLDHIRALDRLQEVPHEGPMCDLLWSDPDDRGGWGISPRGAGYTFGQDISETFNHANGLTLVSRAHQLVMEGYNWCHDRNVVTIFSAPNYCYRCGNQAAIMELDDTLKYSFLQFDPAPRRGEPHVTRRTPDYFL
UniProt P35222: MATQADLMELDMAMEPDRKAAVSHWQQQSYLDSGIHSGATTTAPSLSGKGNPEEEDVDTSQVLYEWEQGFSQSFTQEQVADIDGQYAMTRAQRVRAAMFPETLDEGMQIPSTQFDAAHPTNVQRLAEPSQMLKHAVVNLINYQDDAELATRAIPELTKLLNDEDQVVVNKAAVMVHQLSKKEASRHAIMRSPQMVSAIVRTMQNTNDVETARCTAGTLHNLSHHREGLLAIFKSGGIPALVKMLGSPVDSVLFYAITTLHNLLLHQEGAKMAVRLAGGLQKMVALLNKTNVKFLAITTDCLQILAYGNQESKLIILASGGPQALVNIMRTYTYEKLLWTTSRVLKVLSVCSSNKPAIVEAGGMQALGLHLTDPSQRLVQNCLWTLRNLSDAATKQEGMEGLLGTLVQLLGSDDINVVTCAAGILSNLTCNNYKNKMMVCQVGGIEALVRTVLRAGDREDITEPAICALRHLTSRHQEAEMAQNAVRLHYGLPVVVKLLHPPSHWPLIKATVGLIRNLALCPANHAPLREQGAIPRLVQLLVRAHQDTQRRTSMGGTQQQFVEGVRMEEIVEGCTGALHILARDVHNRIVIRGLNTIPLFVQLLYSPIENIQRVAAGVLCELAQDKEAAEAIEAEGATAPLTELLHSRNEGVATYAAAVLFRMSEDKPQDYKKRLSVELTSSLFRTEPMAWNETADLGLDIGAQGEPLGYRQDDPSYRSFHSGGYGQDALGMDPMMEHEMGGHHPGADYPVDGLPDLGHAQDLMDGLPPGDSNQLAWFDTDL

Legend:
[1] = biological target: T1, Flag-MKRN2 (wild type), expressed in HEK293T cells (human) (UniProt Q9H000); assay: co-IP; exogenous; HEK293T cells overexpressing Flag-MKRN2 (wild type or truncation) and/or Myc-PPP2CA, western blot
T1 sequence: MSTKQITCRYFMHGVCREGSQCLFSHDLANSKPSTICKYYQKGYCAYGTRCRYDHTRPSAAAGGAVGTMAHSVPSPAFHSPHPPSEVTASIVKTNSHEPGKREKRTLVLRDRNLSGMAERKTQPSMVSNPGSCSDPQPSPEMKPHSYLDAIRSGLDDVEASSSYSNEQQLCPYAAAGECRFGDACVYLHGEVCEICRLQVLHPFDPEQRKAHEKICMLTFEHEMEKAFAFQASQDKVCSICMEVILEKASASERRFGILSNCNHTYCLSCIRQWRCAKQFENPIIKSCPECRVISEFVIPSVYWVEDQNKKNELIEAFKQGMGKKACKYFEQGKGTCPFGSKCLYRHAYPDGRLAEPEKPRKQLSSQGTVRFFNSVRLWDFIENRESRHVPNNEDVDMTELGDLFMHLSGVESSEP

[2] = biological target: T2, Makorin Ring Finger Protein 2 (MKRN2), endogenous (human (endogenous in A498 and Caki-1)) (UniProt Q9H000); assay: co-IP; endogenous proteins; A498 and Caki-1 cell lysates incubated overnight at 4°C with primary antibody or IgG, protein A/G magnetic beads, washed with modified RIPA buffer, western blot
T2 sequence: T1 sequence

[3] = biological target: Protein Phosphatase 2 Catalytic Subunit Alpha (PPP2CA), endogenous (human (endogenous in A498 and Caki-1)) (UniProt P67775); assay: as above

binding [1]: binds
Substance: Myc-PPP2CA, expressed in HEK293T cells (from UniProt P67775 1-309)

binding [2]: binds
Substance: Protein Phosphatase 2 Catalytic Subunit Alpha (PPP2CA), endogenous (from UniProt P67775 1-309)

binding [3]: binds
Substance: β-Catenin, endogenous (from UniProt P35222 1-781)
